Reference: US9078928B2 (Institut Pasteur, priority 2011, dated 2015)

Legend:
[1] = general procedure: Fmoc solid-phase peptide synthesis; Fmoc-Glu(tBu)-PHB-PS-resin; HATU/DIEA; conditions: whole synthesis, overall, scale of the general procedure 100 μmoles
[2] = general procedure: Fmoc solid-phase peptide synthesis; H-Ser(tBu)-2-ClTrt-PS-resin (0.78 mmole/g); Fmoc-Glu(tBu)-PHB-PS-resin (0.61 mmole/g) for E13; HATU/DIEA; conditions: for isolated yield: whole synthesis, overall, scale of the general procedure 100 μmoles

NH2-(CH2)3-CO-EEEEEEEEEEEEE (N-terminal gamma-aminobutyric acid)
isolated yield [1]: 73%

NH2-(CH2)3-CO-S-Asu-D-Asu-S-Asu-D-Asu-F-Asu-F-D-Asu-S
isolated yield [2]: 10%

NH2-(CH2)3-CO-S-Y-D-Y-S-Y-D-Y-S-Y-D-Y-S (SYDYSYDYSYDYS; N-terminal gamma-aminobutyric acid)
isolated yield [2]: 8%

NH2-(CH2)3-CO-S-Y-D-Y-S-Y-D-YSO3-S-YSO3-D-YS03-S
isolated yield [2]: 46%

NH2-(CH2)3-CO-S-YSO3-D-YSO3-S-YSO3-D-Y-S-Y-D-Y-S
isolated yield [2]: 41%

NH2-(CH2)3-CO-S-YSO3-D-YSO3-S-YSO3-D-YSO3-S-YSO3-D-YS03-S
isolated yield [2]: 4%

P3Asu-SATP
step yield ([2]; late stage modification step): 36%
